Record: PubChem BioAssay AID504808 (Drosophila RNAi Screening Center, 2011)
Screen: 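Genes whose loss lifts activity of an E2F-responsive reporter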 (primary screen). Cells: Drosophila S2 cells. Reagent: long dsRNA against Drosophila genes. Detection: 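Dual luciferase plate measurements; E2F-specific signal taken as firefly over Renilla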. Scale: E2F firefly: higher = more E2F reporter activity; Renilla normaliser: higher = more normaliser reporter signal. Active means: 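a knock-down counted as active when the firefly/Renilla E2F signal rose above 50%, a threshold chosen arbitrarily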.
The deposit covers about 21,000 reagents; shown is a random part of those with a known target gene and a result. In the full data, 18 (0.084%) got an active call. 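Raw counts without plate normalisation, one of two replicates; the ratio scores behind the calls were not deposited.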 A number with no mark means an inactive call. Names joined by + are all predicted targets of the reagent. Not stated in the record: the amount of reagent, the time to read-out.

no.	target	dsRNA	E2F firefly, rep 1	Renilla normaliser, rep 1
1	Ntl (Neurotransmitter transporter-like)	DRSC03003	51479	2847
2	p-cup (presidents-cup)	DRSC19513	2.25e5	7946
3	cnn (centrosomin)	DRSC05422	1.37e5	4927
4	cnn (centrosomin)	DRSC07596	94131	4021
5	mh (maternal haploid)	DRSC20168	1.22e5	6178
6	so (sine oculis)	DRSC07693	69392	147
7	CG2269	DRSC06833	3067	196
8	wda (will decrease acetylation)	DRSC15579	1.12e5	6432
9	pes (peste)	DRSC03033	1.31e5	5238
10	CCT4 (Chaperonin containing TCP1 subunit 4)	DRSC02865	1.02e5	4894
11	CG10918	DRSC20472	1.30e5	6344
12	Taf4 (TBP-associated factor 4)	DRSC11297	60625	164
13	CG12680	DRSC17871	1.02e5	4599
14	galla-1	DRSC05987	96573	4063
15	sff (sugar-free frosting)	DRSC10590	67199	3778
16	mRpL1 (mitochondrial ribosomal protein L1)	DRSC16251	1.25e5	5518
17	CG12377 (retired record)	DRSC11671	1.22e5	5726
18	CG12377 (retired record)	DRSC11672	1.24e5	5844
19	ppk6 (pickpocket 6)	DRSC06062	1.29e5	5023
20	Usp1 (Ubiquitin specific protease 1)	DRSC14155	2165	948
21	CG13766	DRSC02271	1.48e5	5344
22	mRpS16 (mitochondrial ribosomal protein S16)	DRSC07152	95373	4482
23	CG4306	DRSC10409	1.55e5	8820
24	qless	DRSC15103	1.23e5	5560
25	qless	DRSC15507	1.17e5	6244
26	Spn43Ad (Serpin 43Ad)	DRSC06770	1.34e5	4769
27	CG17777	DRSC18137	1.30e5	6095
28	CG5225	DRSC15742	1.11e5	6684
29	NiPp1 (Nuclear inhibitor of Protein phosphatase 1)	DRSC07307	73092	3034
30	Arr1 (Arrestin 1)	DRSC01867	1.03e5	4601
31	CG4313	DRSC18514	1942	984
32	Rpt2 (Regulatory particle triple-A ATPase 2)	DRSC16799	55734	4392
33	CG12464	DRSC06156	99465	4593
34	Tnks (tankyrase)	DRSC14154	1.31e5	6571
35	CG13982	DRSC02314	1.43e5	5226
36	betaTub97EF (beta-Tubulin at 97EF)	DRSC15666	1.01e5	5594
37	betaTub97EF (beta-Tubulin at 97EF)	DRSC15667	1.10e5	5679
38	betaTub97EF (beta-Tubulin at 97EF)	DRSC15668	1.18e5	5774
39	CG32240	DRSC08093	1.29e5	4000
40	Yp2 (Yolk protein 2)	DRSC18732	6826	772
41	CG7492	DRSC10855	76966	3379
42	CG4041	DRSC18339	1.05e5	5930
43	EbpII (Ejaculatory bulb protein II)	DRSC04637	82313	3732
44	TrissinR (Trissin receptor)	DRSC02334	1.39e5	4639
45	TrissinR (Trissin receptor)	DRSC02335	1.33e5	4443
46	TrissinR (Trissin receptor)	DRSC02336	1.73e5	5718
47	Lztr1 (Leucine zipper like transcription regulator 1)	DRSC18176	1.26e5	5593
48	Lztr1 (Leucine zipper like transcription regulator 1)	DRSC18647	1.00e5	4974
49	Gr64b (Gustatory receptor 64b)	DRSC08444	94936	4218
50	mav (maverick)	DRSC17149	41829	3287
51	CG12116	DRSC17812	1.14e5	6437
52	Gmer (GDP-4-keto-6-deoxy-D-mannose 3,5-epimerase/4-reductase)	DRSC04376	70415	3249
53	CG8661	DRSC20115	1.53e5	5488
54	mus81	DRSC18180	1.26e5	5444
55	mus81	DRSC18644	95394	5193
56	CG7029	DRSC16177	66819	4982
57	CG2519	DRSC12312	81957	3651
58	CG3760	DRSC04415	53768	3097
59	Naa80 (N(alpha)-acetyltransferase 80)	DRSC16429	1.49e5	5854
60	CG31781 (retired record)	DRSC02431	88959	3853
61	CG31781 (retired record)	DRSC02432	1.13e5	5132
62	can (cannonball)	DRSC10664	48701	2720
63	Ir11a (Ionotropic receptor 11a)	DRSC19699	1.21e5	6139
64	Zip99C (Zinc/iron regulated transporter-related protein 99C)	DRSC16320	1838	940
65	CG3309	DRSC18301	96104	6362
66	Mcm7 (Minichromosome maintenance 7)	DRSC11219	1.13e5 (active)	171
67	Nprl2 (Nitrogen permease regulator-like 2)	DRSC20153	1.45e5	5826
68	toc (toucan)	DRSC00169	1.28e5	5979
69	toc (toucan)	DRSC00171	1.33e5	6569
70	toc (toucan)	DRSC00842	82815	3719
71	spidey	DRSC17932	1.01e5	5676
72	CG34155	DRSC13991	80048	2494
73	CG9154	DRSC03150	84047	4652
74	CG1317	DRSC08305	72680	3346
75	CG7611	DRSC11840	85901	3941
76	tank	DRSC00461	1.57e5	4895
77	CG17780 + CG17781	DRSC15266	95450	6212
78	Nrd1 (Nardilysin)	DRSC19830	7787	776
79	CG34038	DRSC04039	1.38e5	5678
80	Rsod (Related to Sod)	DRSC15424	1.14e5	6959
81	Tango4 (Transport and Golgi organization 4)	DRSC19786	4987	832
82	hep (hemipterous)	DRSC19839	73020	4855
83	hep (hemipterous)	DRSC20337	62223	4611
84	Nep1 (Neprilysin 1)	DRSC18388	7514	648
85	Nep1 (Neprilysin 1)	DRSC18389	63095	4162

Part of the list above, set out differently.
| target | dsRNA | E2F firefly, rep 1 | Renilla normaliser, rep 1 |
| --- | --- | --- | --- |
| CG13982 | DRSC02314 | 1.43e5 | 5226 |
| betaTub97EF (beta-Tubulin at 97EF) | DRSC15666 | 1.01e5 | 5594 |
| betaTub97EF (beta-Tubulin at 97EF) | DRSC15667 | 1.10e5 | 5679 |
| betaTub97EF (beta-Tubulin at 97EF) | DRSC15668 | 1.18e5 | 5774 |
| CG32240 | DRSC08093 | 1.29e5 | 4000 |
| Yp2 (Yolk protein 2) | DRSC18732 | 6826 | 772 |
| CG7492 | DRSC10855 | 76966 | 3379 |
| CG4041 | DRSC18339 | 1.05e5 | 5930 |
| EbpII (Ejaculatory bulb protein II) | DRSC04637 | 82313 | 3732 |
